The test concerns the target ADP-ribosylation factor 1 (human (in HCT116; endogenous or overexpressed not stated)) (UniProt P84077). As to the kind of experiment: affinity purification with mass spectrometry; ARF1 immunoprecipitates from HCT116 cells separated on a gel; interacting proteins identified by mass spectrometry.

Amino acid sequences for entries named in this document (tags omitted).
UniProt P84077: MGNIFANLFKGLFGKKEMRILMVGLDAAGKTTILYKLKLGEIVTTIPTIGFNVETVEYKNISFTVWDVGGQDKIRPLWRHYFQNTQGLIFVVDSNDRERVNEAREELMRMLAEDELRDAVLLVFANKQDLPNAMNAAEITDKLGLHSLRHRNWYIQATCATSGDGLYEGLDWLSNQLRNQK
UniProt P46940: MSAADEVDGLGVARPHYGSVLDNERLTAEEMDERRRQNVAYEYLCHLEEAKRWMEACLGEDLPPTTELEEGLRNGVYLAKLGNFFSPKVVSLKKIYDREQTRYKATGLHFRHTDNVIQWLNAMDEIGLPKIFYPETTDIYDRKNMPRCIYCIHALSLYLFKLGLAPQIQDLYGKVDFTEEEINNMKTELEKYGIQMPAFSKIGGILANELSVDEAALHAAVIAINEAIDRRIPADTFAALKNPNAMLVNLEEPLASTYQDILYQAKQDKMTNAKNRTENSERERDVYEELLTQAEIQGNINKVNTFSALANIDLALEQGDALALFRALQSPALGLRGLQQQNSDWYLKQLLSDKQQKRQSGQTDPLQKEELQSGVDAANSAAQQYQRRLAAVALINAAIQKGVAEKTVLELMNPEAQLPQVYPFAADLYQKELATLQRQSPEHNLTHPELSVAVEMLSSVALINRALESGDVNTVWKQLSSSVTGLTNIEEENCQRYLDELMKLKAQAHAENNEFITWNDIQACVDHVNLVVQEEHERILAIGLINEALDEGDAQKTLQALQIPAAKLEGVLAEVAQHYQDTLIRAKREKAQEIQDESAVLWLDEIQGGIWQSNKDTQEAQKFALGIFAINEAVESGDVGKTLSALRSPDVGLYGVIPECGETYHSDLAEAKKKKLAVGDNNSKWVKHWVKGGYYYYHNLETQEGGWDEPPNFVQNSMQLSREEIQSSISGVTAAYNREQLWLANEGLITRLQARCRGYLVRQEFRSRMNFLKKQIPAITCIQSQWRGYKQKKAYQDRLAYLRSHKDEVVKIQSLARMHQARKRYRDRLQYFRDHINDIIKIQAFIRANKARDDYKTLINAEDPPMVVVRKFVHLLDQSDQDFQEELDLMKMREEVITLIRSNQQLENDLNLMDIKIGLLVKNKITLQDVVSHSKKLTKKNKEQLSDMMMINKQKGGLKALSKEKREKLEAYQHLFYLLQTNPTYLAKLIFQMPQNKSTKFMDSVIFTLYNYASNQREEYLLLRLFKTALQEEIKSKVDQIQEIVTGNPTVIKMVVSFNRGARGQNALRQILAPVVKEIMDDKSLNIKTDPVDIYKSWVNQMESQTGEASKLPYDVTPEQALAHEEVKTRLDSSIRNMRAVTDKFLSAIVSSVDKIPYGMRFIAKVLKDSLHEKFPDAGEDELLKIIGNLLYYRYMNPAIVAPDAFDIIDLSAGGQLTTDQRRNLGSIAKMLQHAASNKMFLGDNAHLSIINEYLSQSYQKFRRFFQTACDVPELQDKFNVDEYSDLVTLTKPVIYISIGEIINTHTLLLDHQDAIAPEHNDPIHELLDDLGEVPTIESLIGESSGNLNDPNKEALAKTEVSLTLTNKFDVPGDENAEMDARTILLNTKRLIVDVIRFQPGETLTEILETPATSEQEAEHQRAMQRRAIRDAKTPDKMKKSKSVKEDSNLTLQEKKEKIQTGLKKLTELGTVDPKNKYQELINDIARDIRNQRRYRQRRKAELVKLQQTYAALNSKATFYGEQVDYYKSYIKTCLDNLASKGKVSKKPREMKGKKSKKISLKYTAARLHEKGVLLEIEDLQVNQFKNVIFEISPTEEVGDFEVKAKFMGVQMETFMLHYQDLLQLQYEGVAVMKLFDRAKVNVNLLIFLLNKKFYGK

No constants are given. Whether binding was seen depends on the method and setting. Binding seen in cells or lysates may run through a third protein. Here binding means that the protein was enriched with, or labelled near, the bait; the list need not be complete.

Take “IQ-domain GTPase-activating protein 1 (from UniProt P46940 1-1657)”: the binding result was “binds”.

Values taken from publication PMC7778598.
